Reference: PubChem BioAssay AID1053208 (Peter MacCallum Cancer Centre, 2014)
Screen: 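Genes whose silencing cuts survival of bone tumour cells only with doxorubicin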 (primary screen). Cell system: mouse osteosarcoma cells, early-passage culture from an engineered mouse model of fibroblastic bone tumour. Reagent: siRNA pool against mouse genes, 40 nM. Time to read-out: about 120 h (48 h before drug, then 72 h with drug). Treatment: doxorubicin 100 nM for 72 h, roughly 30-40% inhibitory dose. Detection: 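Luminescent ATP signal taken as viability with or without 100 nM doxorubicin for 72 h; mean of two wells set against non-targeting siRNA and turned into robust z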. Direction: viability z-score with doxorubicin: higher = more viable cells under doxorubicin; viability z-score without drug: higher = more viable cells with knock-down alone. Call rule: 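a pool counts as active when its viability z-score with doxorubicin is -2 or below and its z-score without drug lies between -2 and 2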.
In all, the deposit lists about 17,000 reagents; shown is an unselected part. Of all reagents, 788 (4.7%) are marked active. 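Calls rest on z-score classes alone; an extra cut-off of viability at most 70% of control was not applied to them.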 A number with no mark means an inactive call. The numbers tell different reagents against one gene apart. Not all columns of the deposit are shown.

{"gene symbol": "Kif5c (GeneID 16574)", "pool no.": 1, "combined z-score class": "no change with or without drug", "viability z-score with doxorubicin": -0.11, "viability z-score without drug": -1.18}
{"gene symbol": "Gabrg3 (GeneID 14407)", "pool no.": 1, "combined z-score class": "no change with or without drug", "viability z-score with doxorubicin": 0.67, "viability z-score without drug": 0.51}
{"gene symbol": "Gabrg3 (GeneID 14407)", "pool no.": 2, "combined z-score class": "no change with or without drug", "viability z-score with doxorubicin": 0.34, "viability z-score without drug": -0.17}
{"gene symbol": "Cstf3 (GeneID 228410)", "pool no.": 1, "combined z-score class": "no change with or without drug", "viability z-score with doxorubicin": 0.9, "viability z-score without drug": -0.17}
{"gene symbol": "Kalrn (GeneID 545156)", "pool no.": 1, "combined z-score class": "no change with or without drug", "viability z-score with doxorubicin": 0.56, "viability z-score without drug": 0.84}
{"gene symbol": "Pdik1l (GeneID 230809)", "pool no.": 1, "combined z-score class": "no change with or without drug", "viability z-score with doxorubicin": 0.45, "viability z-score without drug": -0.34}
{"gene symbol": "Stc1 (GeneID 20855)", "pool no.": 1, "combined z-score class": "no change with or without drug", "viability z-score with doxorubicin": 0.79, "viability z-score without drug": 1.52}

2 entries from above, showing only “viability z-score without drug”.
Cstf3 (GeneID 228410): -0.17
Kalrn (GeneID 545156): 0.84

The list goes on.
{"gene symbol": "Stat5a (GeneID 20850)", "pool no.": 1, "combined z-score class": "no change with or without drug", "viability z-score with doxorubicin": -1.12, "viability z-score without drug": 0.34}
{"gene symbol": "Aqp3 (GeneID 11828)", "pool no.": 1, "combined z-score class": "low cell count with doxorubicin only (active)", "viability z-score with doxorubicin": -2.92, "viability z-score without drug": -1.18}
{"gene symbol": "Gnaq (GeneID 14682)", "pool no.": 1, "combined z-score class": "no change with or without drug", "viability z-score with doxorubicin": -0.79, "viability z-score without drug": 0.34}
{"gene symbol": "C6 (GeneID 12274)", "pool no.": 1, "combined z-score class": "no change with or without drug", "viability z-score with doxorubicin": 1.57, "viability z-score without drug": -0.84}
{"gene symbol": "Trim14 (GeneID 74735)", "pool no.": 1, "combined z-score class": "no change with or without drug", "viability z-score with doxorubicin": 0.67, "viability z-score without drug": 0.51}
{"gene symbol": "Naa25 (GeneID 231713)", "pool no.": 1, "combined z-score class": "low cell count without drug only", "viability z-score with doxorubicin": -0.11, "viability z-score without drug": -2.19}
{"gene symbol": "1700010D01Rik (GeneID 76386)", "pool no.": 1, "combined z-score class": "no change with or without drug", "viability z-score with doxorubicin": -0.45, "viability z-score without drug": 1.18}
{"gene symbol": "Or5b106 (GeneID 258684)", "pool no.": 1, "combined z-score class": "no change with or without drug", "viability z-score with doxorubicin": 0, "viability z-score without drug": 0}
{"gene symbol": "Arsk (GeneID 77041)", "pool no.": 1, "combined z-score class": "low cell count without drug only", "viability z-score with doxorubicin": -0.22, "viability z-score without drug": -4.22}
{"gene symbol": "Spaca7 (GeneID 78634)", "pool no.": 1, "combined z-score class": "no change with or without drug", "viability z-score with doxorubicin": 0.45, "viability z-score without drug": 0.51}
{"gene symbol": "Wnt16 (GeneID 93735)", "pool no.": 1, "combined z-score class": "no change with or without drug", "viability z-score with doxorubicin": -0.45, "viability z-score without drug": -0.17}
{"gene symbol": "A530016L24Rik (GeneID 319942)", "pool no.": 1, "combined z-score class": "no change with or without drug", "viability z-score with doxorubicin": -0.22, "viability z-score without drug": -0.51}
